Data source: PubChem BioAssay AID1159578 (Peter MacCallum Cancer Centre, 2015)
Here is one part, drawn at random, of about 18,000 reagents tested. About 1,030 of all reagents (5.7%) were called active. 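Inactive calls also include pools with fewer than 3300 nuclei, whose migration was not assessed.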 The raw values are shown without normalisation. Not all columns of the deposit are shown. No sequences are given here.

- Assay: 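Genome-wide hunt for genes controlling movement of lymphatic endothelial cells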 (primary screen)
- System: human lymphatic endothelial cells
- Reagent: siRNA pool against human genes, 40 nM
- Time to read-out: 48 h after transfection
- Read-out: 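High-content imaging of dye-stained cells in a scratch assay measures filled wound area and nuclei per well; duplicate means given as ratio to mock and robust z-score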
- Reading the numbers: migration robust z-score: higher = faster migration into the scratch; nuclei per well: higher = more cells in the well
- Call rule: 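Migration changed when robust z exceeds 2 or falls below -2 and mean nuclei number is at least 3300; otherwise not called changed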
- Calls: active = migration changed; inactive = no migration change, or too few cells

With C1orf115 (chromosome 1 open reading frame 115), what was measured?
migration robust z-score: -0.99; nuclei per well, duplicate mean: 5329; activity call: inactive

With TLR10 (toll like receptor 10), how do the results read?
migration robust z-score: -0.26; nuclei per well, duplicate mean: 5520; activity call: inactive

Which result is listed for KCNE1?
migration robust z-score: 0.42; nuclei per well, duplicate mean: 6328; activity call: inactive

Which result is listed for SIRT5 (sirtuin 5)?
migration robust z-score: -0.42; nuclei per well, duplicate mean: 5784; activity call: inactive

For SMTNL2 (smoothelin like 2), what was measured?
migration robust z-score: -0.93; nuclei per well, duplicate mean: 5614; activity call: inactive

For C1QTNF5 (C1q and TNF related 5), what does the deposit list?
migration robust z-score: -0.08; nuclei per well, duplicate mean: 5686; activity call: inactive

How did the screen score AQP5 (aquaporin 5)?
migration robust z-score: 0.18; nuclei per well, duplicate mean: 5067; activity call: inactive

For NOP16 (NOP16 nucleolar protein), what was measured?
migration robust z-score: 0.94; nuclei per well, duplicate mean: 6452; activity call: inactive

How did the screen score POSTN (periostin)?
migration robust z-score: -0.96; nuclei per well, duplicate mean: 6182; activity call: inactive

What did the screen give for KIF21A (kinesin family member 21A)?
migration robust z-score: -1.09; nuclei per well, duplicate mean: 5202; activity call: inactive

For PPP6R2 (protein phosphatase 6 regulatory subunit 2), what does the deposit list?
migration robust z-score: -0.76; nuclei per well, duplicate mean: 5616; activity call: inactive

What did the screen give for HBD (hemoglobin subunit delta)?
migration robust z-score: -0.65; nuclei per well, duplicate mean: 5186; activity call: inactive

With SOCS3 (suppressor of cytokine signaling 3), what does the deposit list?
migration robust z-score: -0.54; nuclei per well, duplicate mean: 4381; activity call: inactive

For CFAP418 (cilia and flagella associated protein 418), what was measured?
migration robust z-score: 0.52; nuclei per well, duplicate mean: 3775; activity call: inactive

In a second layout: entries from further up
gene symbol,migration robust z-score,"nuclei per well, duplicate mean",activity call
C1QTNF5 (C1q and TNF related 5),-0.08,5686,inactive
AQP5 (aquaporin 5),0.18,5067,inactive
